Measured values taken from article PMC7438327.
These are yes or no findings as the source states them, for the method shown. Binding seen in cells or lysates may run through a third protein. Some entries that bind do so weakly or less than the wild type. Where a sequence is shown, tags or fusion partners need not be part of it.

Sequences of proteins named here, by UniProt entry; tags and fusion partners are left off. A change or cut given only in a name is not applied to a line headed by its entry. A line that says so, or that is headed by a name, gives the form on record, which may keep a tag or linker. Residues count along the entry.
cyclophilin D (CypD) WT, rescued in HEK CypD-KO cells (P30405, residues 30-207): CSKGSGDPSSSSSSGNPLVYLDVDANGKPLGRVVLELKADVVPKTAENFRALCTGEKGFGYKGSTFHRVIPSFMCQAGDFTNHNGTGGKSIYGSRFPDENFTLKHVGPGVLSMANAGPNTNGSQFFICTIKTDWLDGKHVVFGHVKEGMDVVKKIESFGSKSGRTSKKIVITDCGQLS
cyclophilin D (CypD) phosphomimetic S191E mutant, rescued in HEK CypD-KO cells (P30405, form named): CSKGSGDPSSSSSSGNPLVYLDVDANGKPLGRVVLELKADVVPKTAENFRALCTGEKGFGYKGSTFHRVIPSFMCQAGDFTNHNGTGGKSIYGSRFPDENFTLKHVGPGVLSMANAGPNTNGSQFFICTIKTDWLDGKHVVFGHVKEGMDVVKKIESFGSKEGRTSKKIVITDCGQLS
cyclophilin D (CypD) phosphoresistant S191A mutant, rescued in HEK CypD-KO cells (P30405, form named): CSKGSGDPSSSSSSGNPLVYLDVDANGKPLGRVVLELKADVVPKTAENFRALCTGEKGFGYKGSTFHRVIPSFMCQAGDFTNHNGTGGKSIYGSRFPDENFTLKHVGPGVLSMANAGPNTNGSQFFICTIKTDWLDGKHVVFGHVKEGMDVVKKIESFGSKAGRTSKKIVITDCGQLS

Each substance was assayed against T1, oligomycin sensitivity-conferring protein (OSCP), endogenous in HEK cells (human (endogenous in HEK)) (UniProt P48047) (assay: proximity ligation; in situ PLA between OSCP and CypD in HEK CypD-KO cells rescued with WT, S191A or S191E CypD; basal condition and after 18 h starvation; interactions per cell as fold of WT).
T1 sequence: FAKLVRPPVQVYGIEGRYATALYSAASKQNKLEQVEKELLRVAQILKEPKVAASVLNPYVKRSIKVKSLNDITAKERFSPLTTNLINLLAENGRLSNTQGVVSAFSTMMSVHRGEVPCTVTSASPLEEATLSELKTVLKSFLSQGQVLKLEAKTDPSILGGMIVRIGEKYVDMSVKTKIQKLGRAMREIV

binding	Substance
binds	cyclophilin D (CypD) WT, rescued in HEK CypD-KO cells (from UniProt P30405 30-207)
binds	cyclophilin D (CypD) phosphomimetic S191E mutant, rescued in HEK CypD-KO cells (from UniProt P30405 30-207)
binds	cyclophilin D (CypD) phosphoresistant S191A mutant, rescued in HEK CypD-KO cells (from UniProt P30405 30-207)
